Experiment: Cyclodextrin drug loading monitored by 1H NMR (β-cyclodextrins)
Format: binding
Details: 400 MHz NMR, water and deuterated water, 25° C.

| SMILES | loading and binding of platinum-based drug by β-cyclodextrins (consistent shifts of the cyclodextrin signals in 1H NMR) |
| --- | --- |
| N.N.[Cl][Pt][Cl] [cisplatin] | capable of loading and binding |
| O=C1[O][Pt]2([NH][C@@H]3CCCC[C@H]3[NH]2)[O]C1=O [oxaliplatin] | capable of loading and binding |
